Consider six molecules from PMC11342095.

Assay [1] has as its target T1, Sei1-TurboID-HA (budding yeast) (UniProt Q06058).
T1 sequence: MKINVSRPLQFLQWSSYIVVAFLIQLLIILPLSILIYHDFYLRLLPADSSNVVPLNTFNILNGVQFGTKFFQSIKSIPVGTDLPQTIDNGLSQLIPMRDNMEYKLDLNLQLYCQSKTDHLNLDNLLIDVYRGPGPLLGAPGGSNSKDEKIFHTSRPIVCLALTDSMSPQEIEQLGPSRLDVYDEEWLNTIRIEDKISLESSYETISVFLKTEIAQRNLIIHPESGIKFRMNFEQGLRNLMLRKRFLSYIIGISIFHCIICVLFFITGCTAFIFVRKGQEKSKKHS
The assay is described as follows: proximity labelling; TurboID labelling 'in our studies'; which read-out (Strp-HRP blot, Strp pull-down with Western blot or mass spectrometry) is not told. On the technique in general: In western blotting, separated proteins are transferred to a membrane and probed.

For assay [2], the target named is T2, Ldb16-TurboID-HA (budding yeast) (UniProt P25587).
T2 sequence: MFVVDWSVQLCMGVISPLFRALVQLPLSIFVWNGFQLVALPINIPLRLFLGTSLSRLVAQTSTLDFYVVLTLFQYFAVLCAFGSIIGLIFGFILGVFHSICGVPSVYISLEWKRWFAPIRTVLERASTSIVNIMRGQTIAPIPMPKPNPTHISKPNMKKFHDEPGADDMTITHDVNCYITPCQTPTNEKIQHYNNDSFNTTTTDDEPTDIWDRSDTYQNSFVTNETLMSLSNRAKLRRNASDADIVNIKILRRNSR
Described as above.

In assay [3] the target is T3, Ldo45-TurboID-HA (budding yeast) (UniProt P40218).
T3 sequence: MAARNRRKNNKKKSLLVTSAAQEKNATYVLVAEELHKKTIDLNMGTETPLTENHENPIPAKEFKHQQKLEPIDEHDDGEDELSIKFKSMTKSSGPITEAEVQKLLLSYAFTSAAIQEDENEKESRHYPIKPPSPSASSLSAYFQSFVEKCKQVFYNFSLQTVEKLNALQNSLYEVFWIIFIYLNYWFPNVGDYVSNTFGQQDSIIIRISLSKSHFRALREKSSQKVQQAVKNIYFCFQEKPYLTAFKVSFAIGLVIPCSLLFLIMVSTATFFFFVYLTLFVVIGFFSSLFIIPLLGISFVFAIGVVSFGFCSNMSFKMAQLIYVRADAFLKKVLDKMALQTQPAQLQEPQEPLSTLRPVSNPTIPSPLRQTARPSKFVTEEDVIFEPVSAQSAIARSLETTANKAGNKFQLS
In words: proximity labelling; TurboID labelling in living yeast (arc1Δ background; for Ldo45/16-TurboID-HA also in tgl4Δ, pln1Δ, sei1Δ, ldb16Δ and pex30Δ cells), 50 μM biotin, 6 h, 30 °C; whole-cell extracts blotted with Strp-HRP; bands identified by the size shift of PA-tagged candidates and their loss on deletion.

Assay [4] concerns the target T4, Ldo16-TurboID-HA (budding yeast) (UniProt P40219).
T4 sequence: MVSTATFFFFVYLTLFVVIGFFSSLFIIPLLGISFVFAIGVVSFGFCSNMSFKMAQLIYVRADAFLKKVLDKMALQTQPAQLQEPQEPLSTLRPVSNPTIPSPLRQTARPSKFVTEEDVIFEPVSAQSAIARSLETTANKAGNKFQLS
Described as above.

Assay [5] concerns the target T2, Ldb16-TurboID-HA (budding yeast). The assay is described as above.
The target is the same in assay [6]. In words: proximity labelling; TurboID labelling in the LD-induction system: 3Δ PGAL-LRO1 and 4Δ strains shifted to raffinose or galactose medium with 50 μM biotin, 3 h, 30 °C; Strp pull-down and Western blot.

No constants are given. Whether binding was seen depends on the method and setting. Binding seen in cells or lysates may run through a third protein. These calls come from enrichment with a bait or labelling near it, and not all partners need be listed. For some assays here: A no says only that the protein was not detected with the bait. Sequences can lack the tags named with a protein.

B1: Erg6 (protein, UniProt P25087 1-383)
chain: MSETELRKRQAQFTRELHGDDIGKKTGLSALMSKNNSAQKEAVQKYLRNWDGRTDKDAEERRLEDYNEATHSYYNVVTDFYEYGWGSSFHFSRFYKGESFAASIARHEHYLAYKAGIQRGDLVLDVGCGVGGPAREIARFTGCNVIGLNNNDYQIAKAKYYAKKYNLSDQMDFVKGDFMKMDFEENTFDKVYAIEATCHAPKLEGVYSEIYKVLKPGGTFAVYEWVMTDKYDENNPEHRKIAYEIELGDGIPKMFHVDVARKALKNCGFEVLVSEDLADNDDEIPWYYPLTGEWKYVQNLANLATFFRTSYLGRQFTTAMVTVMEKLGLAPEGSKEVTAALENAAVGLVAGGKSKLFTPMMLFVARKPENAETPSQTSQEATQ
Consider B1, for which the binding entry in assay [1] and in assay [2] was “no binding” throughout.

B2: Tgl4 (protein, UniProt P36165 1-910)
chain: MSSKISDLTSTQNKPLLVTQQLIEKYYEQILGTSQNIIPILNPKNKFIRPSKDNSDVERVEEDAGKRLQTGKNKTTNKVNFNLDTGNEDKLDDDQETVTENENNDIEMVETDEGEDERQGSSLASKCKSFLYNVFVGNYERDILIDKVCSQKQHAMSFEEWCSAGARLDDLTGKTEWKQKLESPLYDYKLIKDLTSRMREERLNRNYAQLLYIIRTNWVRNLGNMGNVNLYRHSHVGTKYLIDEYMMESRLALESLMESDLDDSYLLGILQQTRRNIGRTALVLSGGGTFGLFHIGVLGTLFELDLLPRVISGSSAGAIVASILSVHHKEEIPVLLNHILDKEFNIFKDDKQKSESENLLIKISRFFKNGTWFDNKHLVNTMIEFLGDLTFREAYNRTGKILNITVSPASLFEQPRLLNNLTAPNVLIWSAVCASCSLPGIFPSSPLYEKDPKTGERKPWTGSSSVKFVDGSVDNDLPISRLSEMFNVDHIIACQVNIHVFPFLKLSLSCVGGEIEDEFSARLKQNLSSIYNFMANEAIHILEIGSEMGIAKNALTKLRSVLSQQYSGDITILPDMCMLFRIKELLSNPTKEFLLREITNGAKATWPKVSIIQNHCGQEFALDKAISYIKGRMIVTSSLKTPFQFADSVIGLIKAPEQTSDESKNPENSTLLTRTPTKGDNHISNVLDDNLLESESTNSLLLLRENASTYGRSPSGFRPRYSITSASLNPRHQRRKSDTISTSRRPAKSFSFSVASPTSRMLRQSSKINGHPPPILQKKTSMGRLMFPMDAKTYDPESHELIPHSASIETPAMVDKKLHFGRKSRYLRHMNKKWVSSSNILYTDSDKEDHPTLRLISNFDSDAMIHSDLAGNFRRHSIDGRPPSQATKSSPFRSRPSSSTQHKSTTSFTQ
As to B2, the binding result in assay [3] and in assay [4] was “binds” each time.

B3: Pln1 (protein, UniProt P36139 1-283)
chain: MSESSISSSKPSVELPQATWSHLQRYPALSKFIKYAESLPPVERLISFNLVVLGSVNQWVSESSSSPRLVKQVVAAGKEGAFKLDELVNLLVFKEGVDGLLYNWKSHSNTPGIWLVWFFVDYVANISNTLLREFLIKPLHLQGSTASKEIGSSGEENKVTDASSLPHVAELSSTTRGMSQEIQSKVKSNYIDPTKDLAKEKYDAIVKPTTDKLQSVYIDPTKTKLNETYQRFTTVYENNLSKSESVPKAIVSTGLDLGNATIEKLKASREDQTNSKPAAVSTN
On to B3, for which the binding entry in assay [3] and in assay [4] was “binds” each time.

B4: Ldo45-PA (protein, UniProt P40218 1-412)
chain: T3 sequence
On to B4, for which the binding entry in assay [5] was “binds”.

B5: Ldo45 (protein, UniProt P40218 1-412)
chain: T3 sequence
B5: the binding entry in assay [5] and in assay [6] was “binds” in each case.

B6: Pex30 (protein, UniProt Q06169 1-523)
chain: MSGNTTNVHETRAKFAETLQPRIGGNTTKVIRAALEKNEAESGVSEDNDNGSLEKVNVATSPLLTSTPPTISKALVKLYPYLILIDEFLNVVTWTGKNIWSSVLMLCLFITTVEYFETLVKYFGHLAIIAILWGYSLLDNYIEGTLSSSPTLEDIALLMNRVSLKSDILLSPMVNLGTQDIQRLLYTTVILSPIYVMITWLLLPPRSLMLMVGMFLLTYHSPWSKVARRLLWKFKIVRLLVFYVTGLDLGGINKDQGIFATVQKQVKKLASTENSNGVLSDSKPIRFTYVLYENQRRWLGIGWKPSMLSYERTPWTDEFLNEAPSPENFHLPEETNTMVWRWVDKTWRLDMTNDGAIQVPNSKARTSADPSPDEGFIYYDNTWKKPSKEDSFSKYTRRRRWVRTAELVKTSDFDESVINSNRNSAIEQKVEENSTNGLTAEQELGSNKQEKDNAKKVGEPTTEETKEFAEASNINEGEFERISSTDEEVLKSRARDRLAKVLDDTEEKEQSNPTIGRDSKKAV
Take B6: the binding result in assay [1] and in assay [2] was “no binding” each time.
